Laboratory results published in PubChem BioAssay AID2451 (National Center for Advancing Translational Sciences (NCATS), 2010).
The whole screen tested about 290,000 compounds, of which about 2,100 (0.72%) were called active. Listed are the inconclusive results; actives and inactives stand elsewhere. Calls come from the whole dose curve; as a rule, active = well fitted inhibition curve with a large enough effect; inconclusive = small, poorly fitted or top-dose-only effect, or effect the other way; inactive = flat fitted curve, though single readings scatter. Some tests of the compounds listed are not included; inactive here does not mean inactive elsewhere.

The chains behind the UniProt entries cited, without tags or fusion partners.
UniProt A8B2U2, whole entry: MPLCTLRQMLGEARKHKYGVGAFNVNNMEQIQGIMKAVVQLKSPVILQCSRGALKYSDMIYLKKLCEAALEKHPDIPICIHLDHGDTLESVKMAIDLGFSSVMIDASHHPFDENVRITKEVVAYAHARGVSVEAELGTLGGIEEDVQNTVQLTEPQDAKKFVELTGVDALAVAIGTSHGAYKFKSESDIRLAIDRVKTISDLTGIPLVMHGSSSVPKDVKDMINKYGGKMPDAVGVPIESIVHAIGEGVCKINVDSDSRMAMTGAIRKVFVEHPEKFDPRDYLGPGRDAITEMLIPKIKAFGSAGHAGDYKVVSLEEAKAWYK

These molecules were tested against Fructose-bisphosphate aldolase (Giardia intestinalis (strain ATCC 50803 / WB clone C6)) (UniProt A8B2U2) (assay: qHTS Assay for Inhibitors of Fructose-1,6-bisphosphate Aldolase from Giardia Lamblia). Details: purified Giardia FBPA.
Note: nearly all actives have a fitted effect of over 55% in size.
Potency is the fitted concentration of half-maximal effect.

Compound | Potency
C=CCN1CCN(CCOC(=O)C(O)(c2ccccc2)c2ccccc2)CC1 | inconclusive: 15.8 µM
